Each structure is given as a SMILES string.

Data on one compound can be found in patent US8080367B2, “Regulation of cell survival by HSP90 and IP6K2” (The Johns Hopkins University, priority 2006, dated 2011).

The target of the test is T1, IP6K2-HSP90 binding.
T1 construct: other: purified proteins; 250 nM HSP90 from HeLa preincubated with d
The test can be described thus: In vitro HSP90-IP6K2 binding assay with purified proteins. Details: species or system human. The note with it: 250 nM HSP90 from HeLa preincubated with drug 30 min 37° C., then myc-IP6K2 beads, western blot, read-out: concentration reducing IP6K2-HSP90 binding by 50%. The text has this:
FIG. 3A, 3B, 3C. […] FIG. 3E.
On the technique in general: A western blot detects proteins with antibodies after separation by electrophoresis.

`CN[C@@H]1C[C@H]2O[C@@](C)([C@@H]1OC)n1c3ccccc3c3c4c(c5c6ccccc6n2c5c31)C(=O)NC4` [staurosporine]: the IC50 was around 100 nM.
